Test results taken from patent US20170334988A1 (WALTER AND ELIZA HALL INSTITUTE OF MEDICAL RESEARCH, published 2017).
Substitutions are numbered along the chain they refer to. These are yes or no findings as the source states them, for the method shown. Some entries that bind do so weakly or less than the wild type. Ends that are not written are not given here. * marks the point of attachment. Biotin = O=C1N[C@H]2[C@H](CS[C@H]2CCCCC(=O)*)N1

Tests used:
Experiment in all cases: immunoprecipitation from membranes incubated with or without tBid, western blot
[1] = molecular target: T1, A53C (human) (UniProt Q16611)
T1 sequence (looked up): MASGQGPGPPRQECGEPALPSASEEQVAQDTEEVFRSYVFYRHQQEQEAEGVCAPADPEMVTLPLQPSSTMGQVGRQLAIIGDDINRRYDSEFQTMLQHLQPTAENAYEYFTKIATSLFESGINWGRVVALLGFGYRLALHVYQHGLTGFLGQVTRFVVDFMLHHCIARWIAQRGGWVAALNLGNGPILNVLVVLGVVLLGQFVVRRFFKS

[2] = molecular target: T2, A56C (human) (UniProt Q16611)
T2 sequence (looked up): T1 sequence (looked up) with C53A, A56C

[3] = molecular target: T3, V52C (human) (UniProt Q16611)
T3 sequence (looked up): T1 sequence (looked up) with V52C, C53A

[4] = molecular target: T4, A54C (human) (UniProt Q16611)
T4 sequence (looked up): T1 sequence (looked up) with C53A, A54C

Measured: binding

B1: 26/05-7D10-17-13 antibody (antibody, V domains shown)
VH: EVELVESGGDLVQPGRSLKLSCAASGFTFSNLAMAWVRQTPTKGLEWVASISPAGITTYYRDSVKGRFTISRDNARNTQYLQMDSLRSEDTATYYCARHTGKSSFFDYWGQGVMVTVSS
VL: DVQMTQSPSYLAASPGESVSISCKATENINTYLAWYQAKPGKTTKLLLYSGSTLQSGTPSRFSGSGSGTDFTLTISSLEPEDFAVYYCQQHNEYPLTFGSGTKLEIK
notes: Rat IgG monoclonal antibody from hybridoma SW1 (ECACC 15041601), WEHI monoclonal antibody facility; also called 26/05-7D10-17-13 MAb; 26/05-7D 10-17-13 anti-Bak antibody
binds: all assays above
